These are yes or no findings as the source states them, for the method shown. For some of these results: Binding seen in cells or lysates may run through a third protein. Some binding calls cover weakened binding; strength is not graded here. For some of these results: Where a sequence is shown, tags or fusion partners need not be part of it. Each block holds one binder with its values, some of them ahead of it.
Assays:
[1] = molecular target: T1, Flag-tagged ZFPL1-WT (zinc finger protein-like 1) (human) (UniProt O95159); assay: co-IP; HEK293T cells transfected with His-tagged ASS1 (WT or Mut) and Flag-tagged ZFPL1 (WT or Mut); IP kit, immunoblot
T1 sequence: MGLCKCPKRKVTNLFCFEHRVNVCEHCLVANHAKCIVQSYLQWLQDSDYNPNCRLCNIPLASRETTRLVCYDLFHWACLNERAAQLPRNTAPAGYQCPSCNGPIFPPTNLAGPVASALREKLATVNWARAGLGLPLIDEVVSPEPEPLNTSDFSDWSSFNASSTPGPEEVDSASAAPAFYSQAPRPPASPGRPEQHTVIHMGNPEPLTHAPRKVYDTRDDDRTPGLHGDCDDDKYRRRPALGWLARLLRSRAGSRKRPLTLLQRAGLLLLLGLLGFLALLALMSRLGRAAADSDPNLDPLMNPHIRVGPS

[2] = molecular target: T2, Fluorescently labelled ZFPL1 (MST) (human) (UniProt O95159); assay: MST; fluorescently labelled ZFPL1 mixed with varying concentrations of ASS1; Monolith NT.115; buffer pH 7.4, 1 mM MgCl2, 3 mM KCl, 150 mM NaCl, 0.05% Tween-20; also with Salvianolic acid B added; both purified
T2 sequence (chain, fluorescent label (dye and site not stated)): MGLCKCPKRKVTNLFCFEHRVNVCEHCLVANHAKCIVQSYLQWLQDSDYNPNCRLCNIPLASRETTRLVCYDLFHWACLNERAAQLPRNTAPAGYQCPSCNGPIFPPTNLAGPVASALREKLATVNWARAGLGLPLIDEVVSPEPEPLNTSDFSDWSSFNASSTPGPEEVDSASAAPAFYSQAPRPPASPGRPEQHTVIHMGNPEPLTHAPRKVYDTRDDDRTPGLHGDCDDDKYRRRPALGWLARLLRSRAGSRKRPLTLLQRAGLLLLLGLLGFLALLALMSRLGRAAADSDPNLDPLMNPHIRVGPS

[3] = molecular target: T3, Purified recombinant ZFPL1 protein (bait of the GST pull-down) (human) (UniProt O95159); assay: pull-down; GST pull-down: 15 µg purified recombinant ZFPL1 on glutathione agarose, 4 °C, 1 h, then 15 µg purified recombinant ASS1 for 1 h; eluate by SDS-PAGE and Western blot; GST as negative control; both purified
T3 sequence: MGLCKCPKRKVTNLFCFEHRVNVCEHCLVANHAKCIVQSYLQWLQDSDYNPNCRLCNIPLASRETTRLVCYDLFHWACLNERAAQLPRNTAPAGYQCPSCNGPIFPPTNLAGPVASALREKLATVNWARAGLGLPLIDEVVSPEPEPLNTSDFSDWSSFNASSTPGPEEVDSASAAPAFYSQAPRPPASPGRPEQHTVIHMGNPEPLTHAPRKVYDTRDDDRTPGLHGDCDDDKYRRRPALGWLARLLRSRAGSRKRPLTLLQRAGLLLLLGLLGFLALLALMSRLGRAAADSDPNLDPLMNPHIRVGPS

ASS1 in CRC cells = molecular target: T4, ASS1 in CRC cells (UniProt P00966); assay: co-IP; co-IP of ASS1 and TRIM33 in CRC cells; IP kit, immunoblot
T4 sequence: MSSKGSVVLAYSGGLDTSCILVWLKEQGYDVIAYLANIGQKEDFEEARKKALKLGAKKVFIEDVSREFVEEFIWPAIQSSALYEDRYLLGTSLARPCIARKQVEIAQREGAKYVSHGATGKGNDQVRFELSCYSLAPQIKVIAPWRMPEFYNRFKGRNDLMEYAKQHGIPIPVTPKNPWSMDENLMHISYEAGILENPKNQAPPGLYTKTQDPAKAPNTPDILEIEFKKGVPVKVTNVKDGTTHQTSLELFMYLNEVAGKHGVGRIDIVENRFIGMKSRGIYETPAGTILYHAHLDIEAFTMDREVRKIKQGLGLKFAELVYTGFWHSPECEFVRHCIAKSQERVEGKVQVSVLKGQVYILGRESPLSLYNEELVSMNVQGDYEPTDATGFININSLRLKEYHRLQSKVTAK

B1: His-tagged ASS1-WT (argininosuccinate synthase 1) (protein, UniProt P00966 1-412)
chain: MSSKGSVVLAYSGGLDTSCILVWLKEQGYDVIAYLANIGQKEDFEEARKKALKLGAKKVFIEDVSREFVEEFIWPAIQSSALYEDRYLLGTSLARPCIARKQVEIAQREGAKYVSHGATGKGNDQVRFELSCYSLAPQIKVIAPWRMPEFYNRFKGRNDLMEYAKQHGIPIPVTPKNPWSMDENLMHISYEAGILENPKNQAPPGLYTKTQDPAKAPNTPDILEIEFKKGVPVKVTNVKDGTTHQTSLELFMYLNEVAGKHGVGRIDIVENRFIGMKSRGIYETPAGTILYHAHLDIEAFTMDREVRKIKQGLGLKFAELVYTGFWHSPECEFVRHCIAKSQERVEGKVQVSVLKGQVYILGRESPLSLYNEELVSMNVQGDYEPTDATGFININSLRLKEYHRLQSKVTAK
- binding [1]: binds

B2: ASS1-WT (MST) (protein, UniProt P00966 1-412)
chain: MSSKGSVVLAYSGGLDTSCILVWLKEQGYDVIAYLANIGQKEDFEEARKKALKLGAKKVFIEDVSREFVEEFIWPAIQSSALYEDRYLLGTSLARPCIARKQVEIAQREGAKYVSHGATGKGNDQVRFELSCYSLAPQIKVIAPWRMPEFYNRFKGRNDLMEYAKQHGIPIPVTPKNPWSMDENLMHISYEAGILENPKNQAPPGLYTKTQDPAKAPNTPDILEIEFKKGVPVKVTNVKDGTTHQTSLELFMYLNEVAGKHGVGRIDIVENRFIGMKSRGIYETPAGTILYHAHLDIEAFTMDREVRKIKQGLGLKFAELVYTGFWHSPECEFVRHCIAKSQERVEGKVQVSVLKGQVYILGRESPLSLYNEELVSMNVQGDYEPTDATGFININSLRLKEYHRLQSKVTAK
- binding [2]: binds

Next, values leading:

- binding [3]: binds
B3: Purified recombinant ASS1 protein (prey of the GST pull-down) (protein, UniProt P00966 1-412)
chain: MSSKGSVVLAYSGGLDTSCILVWLKEQGYDVIAYLANIGQKEDFEEARKKALKLGAKKVFIEDVSREFVEEFIWPAIQSSALYEDRYLLGTSLARPCIARKQVEIAQREGAKYVSHGATGKGNDQVRFELSCYSLAPQIKVIAPWRMPEFYNRFKGRNDLMEYAKQHGIPIPVTPKNPWSMDENLMHISYEAGILENPKNQAPPGLYTKTQDPAKAPNTPDILEIEFKKGVPVKVTNVKDGTTHQTSLELFMYLNEVAGKHGVGRIDIVENRFIGMKSRGIYETPAGTILYHAHLDIEAFTMDREVRKIKQGLGLKFAELVYTGFWHSPECEFVRHCIAKSQERVEGKVQVSVLKGQVYILGRESPLSLYNEELVSMNVQGDYEPTDATGFININSLRLKEYHRLQSKVTAK

- binding (ASS1 in CRC cells): binds
B4: TRIM33 (tripartite motif containing 33) in CRC cells (protein, UniProt Q9UPN9 1-1127)
chain: MAENKGGGEAESGGGGSGSAPVTAGAAGPAAQEAEPPLTAVLVEEEEEEGGRAGAEGGAAGPDDGGVAAASSGSAQAASSPAASVGTGVAGGAVSTPAPAPASAPAPGPSAGPPPGPPASLLDTCAVCQQSLQSRREAEPKLLPCLHSFCLRCLPEPERQLSVPIPGGSNGDIQQVGVIRCPVCRQECRQIDLVDNYFVKDTSEAPSSSDEKSEQVCTSCEDNASAVGFCVECGEWLCKTCIEAHQRVKFTKDHLIRKKEDVSESVGASGQRPVFCPVHKQEQLKLFCETCDRLTCRDCQLLEHKEHRYQFLEEAFQNQKGAIENLLAKLLEKKNYVHFAATQVQNRIKEVNETNKRVEQEIKVAIFTLINEINKKGKSLLQQLENVTKERQMKLLQQQNDITGLSRQVKHVMNFTNWAIASGSSTALLYSKRLITFQLRHILKARCDPVPAANGAIRFHCDPTFWAKNVVNLGNLVIESKPAPGYTPNVVVGQVPPGTNHISKTPGQINLAQLRLQHMQQQVYAQKHQQLQQMRMQQPPAPVPTTTTTTQQHPRQAAPQMLQQQPPRLISVQTMQRGNMNCGAFQAHQMRLAQNAARIPGIPRHSGPQYSMMQPHLQRQHSNPGHAGPFPVVSVHNTTINPTSPTTATMANANRGPTSPSVTAIELIPSVTNPENLPSLPDIPPIQLEDAGSSSLDNLLSRYISGSHLPPQPTSTMNPSPGPSALSPGSSGLSNSHTPVRPPSTSSTGSRGSCGSSGRTAEKTSLSFKSDQVKVKQEPGTEDEICSFSGGVKQEKTEDGRRSACMLSSPESSLTPPLSTNLHLESELDALASLENHVKIEPADMNESCKQSGLSSLVNGKSPIRSLMHRSARIGGDGNNKDDDPNEDWCAVCQNGGDLLCCEKCPKVFHLTCHVPTLLSFPSGDWICTFCRDIGKPEVEYDCDNLQHSKKGKTAQGLSPVDQRKCERLLLYLYCHELSIEFQEPVPASIPNYYKIIKKPMDLSTVKKKLQKKHSQHYQIPDDFVADVRLIFKNCERFNEMMKVVQVYADTQEINLKADSEVAQAGKAVALYFEDKLTEIYSDRTFAPLPEFEQEEDDGEVTEDSDEDFIQPRRKRLKSDERPVHIK

— article PMC12697865, “ZFPL1 Promotes Colorectal Cancer Progression by Stabilizing ASS1 to Drive the Urea Cycle and M2 Macrophage‐Mediated Metastatic Colonization” (Advanced Science, 2025)
